Measured values as given in article doi:10.1101/2021.06.28.450115.

Target: T1, DAB2IP (endogenous, SW48) (human (endogenous in SW48)) (UniProt Q5VWQ8)
T1 sequence: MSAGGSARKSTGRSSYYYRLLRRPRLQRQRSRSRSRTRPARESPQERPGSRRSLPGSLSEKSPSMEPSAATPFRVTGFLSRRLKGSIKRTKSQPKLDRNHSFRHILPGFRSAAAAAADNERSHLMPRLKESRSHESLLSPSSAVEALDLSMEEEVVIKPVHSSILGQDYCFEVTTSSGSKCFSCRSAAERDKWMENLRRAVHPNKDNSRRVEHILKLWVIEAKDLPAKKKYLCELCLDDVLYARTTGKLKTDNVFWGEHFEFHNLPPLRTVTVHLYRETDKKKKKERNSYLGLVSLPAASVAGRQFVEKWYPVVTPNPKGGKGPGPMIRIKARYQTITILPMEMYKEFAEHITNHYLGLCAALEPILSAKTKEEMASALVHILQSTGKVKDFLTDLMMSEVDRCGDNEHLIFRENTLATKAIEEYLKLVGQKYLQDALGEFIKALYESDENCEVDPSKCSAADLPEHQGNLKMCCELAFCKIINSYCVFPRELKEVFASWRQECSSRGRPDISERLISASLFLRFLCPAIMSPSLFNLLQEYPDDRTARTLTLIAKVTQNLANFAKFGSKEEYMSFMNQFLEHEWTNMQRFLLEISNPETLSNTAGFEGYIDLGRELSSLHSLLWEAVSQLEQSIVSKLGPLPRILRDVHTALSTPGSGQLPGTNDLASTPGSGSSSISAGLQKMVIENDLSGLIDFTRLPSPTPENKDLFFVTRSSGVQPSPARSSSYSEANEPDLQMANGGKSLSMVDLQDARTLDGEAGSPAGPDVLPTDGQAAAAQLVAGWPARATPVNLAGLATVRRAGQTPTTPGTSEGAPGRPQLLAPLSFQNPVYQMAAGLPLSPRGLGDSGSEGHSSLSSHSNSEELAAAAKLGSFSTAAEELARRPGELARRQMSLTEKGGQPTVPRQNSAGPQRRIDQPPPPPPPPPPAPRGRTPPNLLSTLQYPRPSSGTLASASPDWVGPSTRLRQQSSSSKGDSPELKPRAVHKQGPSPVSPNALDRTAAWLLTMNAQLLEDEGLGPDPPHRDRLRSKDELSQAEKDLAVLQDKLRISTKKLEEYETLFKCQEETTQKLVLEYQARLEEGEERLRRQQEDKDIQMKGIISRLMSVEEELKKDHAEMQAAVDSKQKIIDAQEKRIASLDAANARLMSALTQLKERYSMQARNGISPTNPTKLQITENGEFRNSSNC
Test: affinity purification with mass spectrometry

binding: binds
Substance: HSP90AA1 (endogenous, SW48) (from UniProt P07900 1-732)

These are yes or no findings as the source states them, for the method shown. In cells and extracts the contact can be indirect. Here binding means that the protein was enriched with, or labelled near, the bait; the list need not be complete.
